# Results: patent US10934439B2, “Additives for coating compositions and related methods” (Massachusetts Institute of Technology, priority 2017, dated 2021)
# Legend:
# [1] = Potentiodynamic polarization (Tafel tests) of galvanized steel in 3.5% NaCl with additives; settings: 25° C
# From the text: The electrochemical open-to-air cell (PTC1™ Paint Test Cell, Gamry Instruments, Warminster, Pa.) was utilized for the potentiodynamic polarization (Tafel tests) and electrochemical impedance spectroscopy experiments. The electrochemical cell was composed of working electrode made of galvanized steel (zinc-galvanized sheets of type B carbon steel, ASTM A653, total thickness 0.305 mm, working area 2.2 cm^2 or 15.2 cm^2, McMaster Carr Supply Co., Robbinsvill, N.J.), reference Ag/AgCl electrode, and Pt wire auxiliary electrode (BASK) Corp., West Lafayette, Ind.). Prior to the immersion in the electrolyte (3.5% NaCl, pH adjusted to 5.25-5.3, 40 mL), the working electrodes were washed by acetone, ethanol, dried by nitrogen flow and polished with P1200 grit.^24 The working electrode was immersed into electrolyte containing the tested compound at a given concentration with desired pH at 25° C. for 60 min prior to each measurement. […] The carbon steel used herein was coated with the average minimum coating thickness per ASTM A653 being 2.0 mils (0.0508 mm) per surface. Tafel tests (ASTM GS) were conducted using a Parstat PMC-2000 multichannel potentiostat equipped with Versa Studio 2.50.3 software (Princeton Applied Research, Oak Ridge, Tenn.). Tafel tests were modeled with a ZSIMPWIN™ software for complex nonlinear least square analyses fitting the circuit models of the electrode interface to the Nyquist amplitude of 10 mV at the open circuit potential in the frequency range of 100 kHz to 0.2 Hz. Parameters for Tafel tests were as follows: initial potential, −1.25 V (vs reference); final potential, −0.45 V; scan properties: step height, 0.5 mV, step time, 2 s. In a series of measurements with the corrosion inhibiting additives, a range of the additive concentrations was studied and the scan range was set from 150 mV below the open circuit voltage (OCV) to 200 mV more positive than the OCV, with three measurements for each condition. The range in these measurements was limited in order to minimize the cathodic polarization causing local pH changes.
# In the vicinity of Ecorr both currents are present in the specimen, but experimentally it is possible to measure only the net current. The net current has a single measurable polarity, either positive or negative. At Ecorr the net measured current is exactly zero. The corrosion current (icorr) is expressed as (for definitions, see FIG. 13):
# [formula] where E.W. is the equivalent weight of the corroding species, g. In this case, the corroding species is Zn, so E.W.=32.7 g. Icorr, is the corrosion current density in μA/cm^2, and d is the density of the corroding species. Density of zinc is 7.140 g/cm^3.
# From the icorr values, inhibitor efficiencies (IE, %) were calculated as (equation (1)): […]
# [2] = Gel time of epoxy-amine curing by oscillatory shear rheometry; settings: 5 wt % loading; 60-100° C; without additives 39.2 kJ/mol
# [3] = DSC of benzoxazine resin curing polymerization; settings: for exotherm peak maxima: 10 mol % additive, 10° C/min (FIG. 24), without additives 220° C; for apparent activation energy of benzoxazine polymerization: 10 mol % loading, monomer alone 88.6 kJ/mol
Compound,"−Ecorr (corrosion potential) ([1]; pH 2.1, [TDPA] 94.8 meq/L)","−Ecorr (corrosion potential) ([1]; pH 5.3, [TDPA] 47.4 meq/L)","−Ecorr (corrosion potential) ([1]; pH 5.3, [TDPA] 94.8 meq/L)","−Ecorr (corrosion potential) ([1]; pH 5.6, additive 10 mg/mL)","−Ecorr (corrosion potential) ([1]; pH 5.3, [Mg2+] 9.93, [Ac−] 9.93, [TDPA] 15.9 meq/L)","−Ecorr (corrosion potential) ([1]; pH 5.3, [Mg2+] 41.9, [Ac−] 41.9, [TDPA] 67.1 meq/L)","−Ecorr (corrosion potential) ([1]; pH 5.3, [Mg2+] 62.9, [Ac−] 62.9, [TDPA] 101 meq/L)",apparent activation energy of curing [2],exotherm peak maxima [3],apparent activation energy of benzoxazine polymerization [3],"lowering of the onset of curing reactions ([3]; MgAcTDPA 12 wt %, 15° C/min (FIG. 23))","−Ecorr (corrosion potential) ([1]; pH 5.3, [Mg2+] 71.8, [Ac−] 144, [TDPA] 0 meq/L)"
"O=C(O)CCSCCC(=O)O [TDPA, 3,3′-thiodipropionic acid, reference compound]",1.042 V,1.046 V,1.049 V,1.076 V,,,,,,,,
magnesium acetate thiodipropionate [MgAcTDPA],,,,1.067 V,1.079 V,1.025 V,1.018 V,29.3 kJ/mol,204 °C,69.1 kJ/mol,ca. 46 °C,
magnesium thiodipropionate [MgTDPA1:1],,,,,,,,27.8 kJ/mol,178 °C,63.7 kJ/mol,,
"CC(=O)[O-].CC(=O)[O-].O.O.O.O.[Mg+2] [MgAc2, magnesium acetate tetrahydrate, reference compound]",,,,1.059 V,,,,,,,,0.903 V
